For test [1], the target named is flag-tagged STAT3 (STAT3-WT-Flag) (UniProt P40763). Briefly: co-IP; Flag antibody IP from lysates of transfected HEK293 cells, Western blot for p-TrkA and total TrkA. A general note: Immunoblotting shows a protein as a band on a membrane.
Test [2] has as its target endogenous p-TrkA (Y490) of MDA-MB-468 cells (human (endogenous in MDA-MB-468)) (UniProt P04629). Briefly: co-IP; IP of endogenous p-TrkA (Y490) from MDA-MB-468 lysate with p-TrkA (Y490) antibody on Dynabeads Protein G, overnight at 4 °C, Western blot for STAT3.
The target in test [3] is p-TrkA (Y490) in HEK293 cells (human (endogenous in HEK293)) (UniProt P04629). Briefly: co-IP; reciprocal IP with p-TrkA (Y490) antibody on Dynabeads Protein G from lysates of HEK293 cells transfected with STAT3-Flag, overnight at 4 °C, Western blot.

Chains of the proteins cited; added tags and fusions are not shown. Residues count along the entry.
UniProt P40763: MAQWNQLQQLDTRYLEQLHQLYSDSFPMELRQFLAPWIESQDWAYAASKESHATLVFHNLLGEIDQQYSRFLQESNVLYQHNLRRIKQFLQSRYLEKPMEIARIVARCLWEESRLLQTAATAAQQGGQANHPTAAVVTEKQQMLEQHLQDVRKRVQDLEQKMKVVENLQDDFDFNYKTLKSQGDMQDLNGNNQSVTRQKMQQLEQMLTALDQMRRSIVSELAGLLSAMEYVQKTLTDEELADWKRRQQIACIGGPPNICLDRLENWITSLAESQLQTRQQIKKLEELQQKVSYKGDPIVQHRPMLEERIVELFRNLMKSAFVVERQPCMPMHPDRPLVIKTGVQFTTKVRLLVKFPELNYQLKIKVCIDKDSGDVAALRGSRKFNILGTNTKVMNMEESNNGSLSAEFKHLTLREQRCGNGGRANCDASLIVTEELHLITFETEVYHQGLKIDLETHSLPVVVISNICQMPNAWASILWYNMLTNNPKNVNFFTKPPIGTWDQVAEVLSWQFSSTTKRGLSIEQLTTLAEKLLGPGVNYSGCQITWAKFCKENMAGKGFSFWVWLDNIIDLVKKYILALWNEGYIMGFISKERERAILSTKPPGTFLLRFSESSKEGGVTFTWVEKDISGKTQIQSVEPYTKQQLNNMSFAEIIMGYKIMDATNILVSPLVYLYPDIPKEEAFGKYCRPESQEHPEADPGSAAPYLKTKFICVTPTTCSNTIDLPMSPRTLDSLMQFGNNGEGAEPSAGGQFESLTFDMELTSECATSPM
UniProt P04629, residues 33-796: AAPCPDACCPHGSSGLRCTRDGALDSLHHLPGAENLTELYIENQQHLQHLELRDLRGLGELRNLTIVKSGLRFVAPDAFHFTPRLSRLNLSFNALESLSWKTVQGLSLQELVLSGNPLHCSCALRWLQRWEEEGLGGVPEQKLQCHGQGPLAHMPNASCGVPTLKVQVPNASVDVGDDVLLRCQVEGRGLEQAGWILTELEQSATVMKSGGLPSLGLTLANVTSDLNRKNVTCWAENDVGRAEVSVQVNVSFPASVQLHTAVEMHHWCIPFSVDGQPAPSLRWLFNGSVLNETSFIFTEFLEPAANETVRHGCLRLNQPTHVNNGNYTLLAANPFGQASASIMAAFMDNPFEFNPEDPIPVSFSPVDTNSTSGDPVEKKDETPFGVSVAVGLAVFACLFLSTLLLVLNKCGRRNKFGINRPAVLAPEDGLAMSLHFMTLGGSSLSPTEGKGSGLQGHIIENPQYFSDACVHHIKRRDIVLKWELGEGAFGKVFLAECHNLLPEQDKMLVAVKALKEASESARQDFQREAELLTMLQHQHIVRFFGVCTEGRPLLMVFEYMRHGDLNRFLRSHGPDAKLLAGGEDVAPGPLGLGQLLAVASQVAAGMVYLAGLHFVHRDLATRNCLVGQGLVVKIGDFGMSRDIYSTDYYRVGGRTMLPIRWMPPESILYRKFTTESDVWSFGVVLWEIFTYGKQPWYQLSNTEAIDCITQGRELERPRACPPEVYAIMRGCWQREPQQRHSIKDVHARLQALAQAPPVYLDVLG

No constants are given. Whether binding was seen depends on the method and setting. In cells and extracts the contact can be indirect. Some results given as binding are weak or reduced against the parent protein; the word gives no strength.

Regarding “TrkA (total TrkA) in HEK293 cells (from UniProt P04629 33-796) (receptor)”, in test [1], the binding result is listed as “binds”.
Consider “endogenous STAT3 of MDA-MB-468 cells (from UniProt P40763 1-770)”, for which the binding result in test [2] is “binds”.
Turning to “flag-tagged STAT3 (STAT3-WT-Flag) (from UniProt P40763 1-770)”, the binding result in test [3] is listed as “binds”.
For “p-TrkA (Y490) in HEK293 cells (from UniProt P04629 33-796) (receptor)”, the binding result in test [1] was “binds”.

These data come from PMC8150921.
